Results published in article PMC10589346.
These are yes or no findings as the source states them, for the method shown. For part of these data: In cells and extracts the contact can be indirect. Some entries that bind do so weakly or less than the wild type. For part of these data: Tags and fused reporters may be left off the sequences shown. Values belong to the binder of their own block, whether it stands above or below them.

Sequences of proteins named here, by UniProt entry; tags and fusion partners are left off. A change or cut given only in a name is not applied to a line headed by its entry.
UniProt Q8N697: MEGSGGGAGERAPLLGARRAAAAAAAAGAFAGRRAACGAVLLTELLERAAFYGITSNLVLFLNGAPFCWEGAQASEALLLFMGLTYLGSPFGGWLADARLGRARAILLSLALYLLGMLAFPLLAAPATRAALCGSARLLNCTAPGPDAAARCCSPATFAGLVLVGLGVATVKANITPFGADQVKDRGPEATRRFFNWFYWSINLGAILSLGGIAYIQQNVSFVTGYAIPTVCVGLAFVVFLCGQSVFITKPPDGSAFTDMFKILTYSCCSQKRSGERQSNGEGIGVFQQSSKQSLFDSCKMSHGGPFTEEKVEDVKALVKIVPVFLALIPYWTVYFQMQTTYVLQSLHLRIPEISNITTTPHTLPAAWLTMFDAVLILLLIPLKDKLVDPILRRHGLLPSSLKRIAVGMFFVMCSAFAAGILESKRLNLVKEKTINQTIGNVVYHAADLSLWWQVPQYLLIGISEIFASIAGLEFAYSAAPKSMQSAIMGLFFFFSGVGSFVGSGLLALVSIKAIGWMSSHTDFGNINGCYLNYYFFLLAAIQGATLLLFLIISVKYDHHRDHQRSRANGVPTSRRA

Assays:
[1] = biological target: human full-length SLC15A4 with C-terminus tandem twin Strep-tag (human) (UniProt Q8N697); assay: co-purification of co-expressed proteins; C-terminal Flag-tagged TASL(1–20&207–301) and C-terminal strep-tagged SLC15A4 co-expressed in HEK293F; complex reconstituted in LMNG micelles
[2] = biological target: SLC15A4-FLAG E465K (human) (UniProt Q8N697); assay: co-IP; SLC15A4-FLAG (wild-type or mutants) co-transfected with TASL(1–20)Strep in HEK293T; lysis buffer 25 mM HEPES, 300 mM NaCl, 5 mM EDTA, 1% NP-40, pH 7.5; FLAG beads overnight at 4 °C; immunoblotting
[3] = biological target: SLC15A4-FLAG wild-type (human) (UniProt Q8N697); assay: as above

binding [1]: binds
B1: C-terminal Flag-tagged TASL(1–20&207–301) (domain or fragment, UniProt Q9HAI6 1-20; Q9HAI6 207-301)
chain: MLSEGYLSGLEYWNDIHWSCNAVLNEYLEQKVVELYKQYIMDTVFHDSSPTQILASELIMTSVDQISLQVSREKNLETSKARDIVFSRLLQLMSTEITEISTPSLHISQYSNVNP

binding [2]: no binding
binding [3]: binds
Binder: MLSEGYLSGLEYWNDIHWSC (domain or fragment, UniProt Q9HAI6 1-20) [TASL(1–20)Strep]
